According to the supplement of paper PMC6411743:
± gives the standard deviation of the averaged measurements. This is a selection; strong and weak results do not stand in their true shares. Most values lie at the level of the controls, where differences are scatter.

By UniProt entry, the sequences of proteins in these tests, tags left out. Where a name states a change or a piece, a line headed by the entry shows the natural chain unless it says otherwise.
UniProt O95081: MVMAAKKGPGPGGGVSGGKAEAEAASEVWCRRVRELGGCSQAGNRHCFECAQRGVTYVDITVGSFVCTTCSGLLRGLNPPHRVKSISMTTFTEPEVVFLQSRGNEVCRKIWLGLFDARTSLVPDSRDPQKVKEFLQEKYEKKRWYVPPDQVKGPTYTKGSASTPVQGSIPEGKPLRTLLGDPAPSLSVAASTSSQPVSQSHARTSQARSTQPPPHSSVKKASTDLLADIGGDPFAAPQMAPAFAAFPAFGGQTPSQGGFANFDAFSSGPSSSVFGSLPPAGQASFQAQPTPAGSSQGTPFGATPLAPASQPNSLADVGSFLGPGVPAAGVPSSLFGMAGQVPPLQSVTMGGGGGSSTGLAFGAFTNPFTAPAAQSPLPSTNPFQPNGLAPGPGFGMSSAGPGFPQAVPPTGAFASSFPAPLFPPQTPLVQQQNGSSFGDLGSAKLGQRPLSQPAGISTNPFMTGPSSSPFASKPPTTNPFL
UniProt O75380, whole entry: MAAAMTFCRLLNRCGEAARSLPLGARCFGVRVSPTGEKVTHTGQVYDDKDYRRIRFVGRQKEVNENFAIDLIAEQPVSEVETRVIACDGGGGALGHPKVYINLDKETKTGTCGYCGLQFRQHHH
UniProt O75525: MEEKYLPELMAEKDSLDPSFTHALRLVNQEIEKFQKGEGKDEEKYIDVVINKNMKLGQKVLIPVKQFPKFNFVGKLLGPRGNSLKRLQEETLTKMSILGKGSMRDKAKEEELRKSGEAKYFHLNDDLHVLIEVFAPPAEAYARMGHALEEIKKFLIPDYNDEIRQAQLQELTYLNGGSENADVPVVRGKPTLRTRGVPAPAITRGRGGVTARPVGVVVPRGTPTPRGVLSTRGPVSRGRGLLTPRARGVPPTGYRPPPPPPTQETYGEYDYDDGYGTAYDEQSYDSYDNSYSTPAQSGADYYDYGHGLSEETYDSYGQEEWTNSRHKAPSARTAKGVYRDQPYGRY
UniProt O75882: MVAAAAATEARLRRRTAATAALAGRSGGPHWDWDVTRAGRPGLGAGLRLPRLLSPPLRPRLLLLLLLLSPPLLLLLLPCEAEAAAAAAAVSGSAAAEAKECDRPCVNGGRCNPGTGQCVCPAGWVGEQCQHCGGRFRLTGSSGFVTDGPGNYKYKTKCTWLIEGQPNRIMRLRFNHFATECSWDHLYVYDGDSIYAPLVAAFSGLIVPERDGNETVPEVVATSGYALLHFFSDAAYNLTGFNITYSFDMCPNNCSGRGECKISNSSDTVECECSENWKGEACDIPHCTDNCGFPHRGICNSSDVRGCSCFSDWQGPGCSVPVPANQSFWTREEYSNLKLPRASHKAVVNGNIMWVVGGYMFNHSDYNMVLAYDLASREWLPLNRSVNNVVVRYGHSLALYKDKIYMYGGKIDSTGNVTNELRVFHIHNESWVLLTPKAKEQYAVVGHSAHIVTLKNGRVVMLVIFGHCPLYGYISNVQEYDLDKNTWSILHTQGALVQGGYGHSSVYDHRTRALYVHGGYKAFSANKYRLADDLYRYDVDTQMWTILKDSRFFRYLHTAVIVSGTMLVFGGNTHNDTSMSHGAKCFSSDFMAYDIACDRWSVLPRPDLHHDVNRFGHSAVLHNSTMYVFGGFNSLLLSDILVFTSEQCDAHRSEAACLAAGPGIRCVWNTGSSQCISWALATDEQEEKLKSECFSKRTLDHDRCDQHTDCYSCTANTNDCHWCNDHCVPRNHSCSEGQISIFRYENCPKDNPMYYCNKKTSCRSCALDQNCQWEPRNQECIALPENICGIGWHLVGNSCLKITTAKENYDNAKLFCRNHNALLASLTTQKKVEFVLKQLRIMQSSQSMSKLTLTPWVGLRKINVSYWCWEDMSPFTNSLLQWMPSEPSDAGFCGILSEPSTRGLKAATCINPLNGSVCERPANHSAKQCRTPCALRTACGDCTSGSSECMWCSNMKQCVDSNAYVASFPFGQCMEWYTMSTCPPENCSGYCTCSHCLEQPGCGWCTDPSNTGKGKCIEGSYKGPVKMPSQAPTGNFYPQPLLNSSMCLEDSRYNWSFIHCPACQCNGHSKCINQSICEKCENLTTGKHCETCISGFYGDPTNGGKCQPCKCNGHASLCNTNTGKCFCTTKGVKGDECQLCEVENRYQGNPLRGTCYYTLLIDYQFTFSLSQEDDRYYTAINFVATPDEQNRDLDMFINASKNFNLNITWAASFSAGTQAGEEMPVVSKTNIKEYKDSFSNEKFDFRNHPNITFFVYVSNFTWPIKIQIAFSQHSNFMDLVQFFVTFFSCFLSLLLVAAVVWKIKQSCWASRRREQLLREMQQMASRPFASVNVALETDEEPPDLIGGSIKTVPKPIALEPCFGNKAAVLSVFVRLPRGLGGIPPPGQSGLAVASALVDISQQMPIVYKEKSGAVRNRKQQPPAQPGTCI
UniProt O94906: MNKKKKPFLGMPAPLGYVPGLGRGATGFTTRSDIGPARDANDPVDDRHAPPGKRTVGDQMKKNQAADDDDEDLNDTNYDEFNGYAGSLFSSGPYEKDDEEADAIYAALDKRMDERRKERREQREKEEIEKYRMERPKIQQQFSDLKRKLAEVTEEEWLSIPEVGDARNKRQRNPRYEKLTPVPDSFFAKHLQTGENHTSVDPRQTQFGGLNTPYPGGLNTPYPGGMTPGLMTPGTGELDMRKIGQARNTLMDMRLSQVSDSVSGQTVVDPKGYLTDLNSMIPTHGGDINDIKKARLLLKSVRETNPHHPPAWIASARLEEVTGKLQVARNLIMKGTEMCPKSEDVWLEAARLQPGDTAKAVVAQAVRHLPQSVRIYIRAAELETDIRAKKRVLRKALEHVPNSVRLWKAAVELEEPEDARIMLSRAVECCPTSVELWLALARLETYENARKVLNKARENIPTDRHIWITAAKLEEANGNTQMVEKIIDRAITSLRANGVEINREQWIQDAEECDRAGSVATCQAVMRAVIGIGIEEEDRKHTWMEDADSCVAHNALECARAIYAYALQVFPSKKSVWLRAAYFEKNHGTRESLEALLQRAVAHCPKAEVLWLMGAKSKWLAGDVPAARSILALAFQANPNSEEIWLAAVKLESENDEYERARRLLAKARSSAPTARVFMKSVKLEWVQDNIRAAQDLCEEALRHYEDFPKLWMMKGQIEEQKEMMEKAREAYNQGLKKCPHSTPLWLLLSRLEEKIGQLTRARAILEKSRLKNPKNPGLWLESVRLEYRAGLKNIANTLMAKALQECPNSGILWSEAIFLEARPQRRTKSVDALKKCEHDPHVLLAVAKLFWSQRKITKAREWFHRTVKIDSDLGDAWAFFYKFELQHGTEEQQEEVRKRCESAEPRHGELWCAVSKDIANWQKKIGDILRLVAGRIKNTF
UniProt O95470: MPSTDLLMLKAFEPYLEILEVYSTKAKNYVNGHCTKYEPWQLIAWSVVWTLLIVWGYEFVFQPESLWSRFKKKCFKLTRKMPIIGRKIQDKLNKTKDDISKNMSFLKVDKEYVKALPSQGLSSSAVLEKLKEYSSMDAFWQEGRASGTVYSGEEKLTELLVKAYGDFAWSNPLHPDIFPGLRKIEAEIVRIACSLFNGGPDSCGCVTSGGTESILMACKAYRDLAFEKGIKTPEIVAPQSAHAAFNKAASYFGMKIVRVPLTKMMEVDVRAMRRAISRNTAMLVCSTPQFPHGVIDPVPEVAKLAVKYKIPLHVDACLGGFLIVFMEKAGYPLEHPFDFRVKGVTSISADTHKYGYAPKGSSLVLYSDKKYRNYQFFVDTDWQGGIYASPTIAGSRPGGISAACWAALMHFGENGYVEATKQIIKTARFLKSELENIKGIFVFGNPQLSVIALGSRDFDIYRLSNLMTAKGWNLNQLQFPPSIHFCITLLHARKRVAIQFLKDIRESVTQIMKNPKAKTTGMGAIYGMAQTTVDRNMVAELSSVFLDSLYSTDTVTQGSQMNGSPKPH
UniProt O95786: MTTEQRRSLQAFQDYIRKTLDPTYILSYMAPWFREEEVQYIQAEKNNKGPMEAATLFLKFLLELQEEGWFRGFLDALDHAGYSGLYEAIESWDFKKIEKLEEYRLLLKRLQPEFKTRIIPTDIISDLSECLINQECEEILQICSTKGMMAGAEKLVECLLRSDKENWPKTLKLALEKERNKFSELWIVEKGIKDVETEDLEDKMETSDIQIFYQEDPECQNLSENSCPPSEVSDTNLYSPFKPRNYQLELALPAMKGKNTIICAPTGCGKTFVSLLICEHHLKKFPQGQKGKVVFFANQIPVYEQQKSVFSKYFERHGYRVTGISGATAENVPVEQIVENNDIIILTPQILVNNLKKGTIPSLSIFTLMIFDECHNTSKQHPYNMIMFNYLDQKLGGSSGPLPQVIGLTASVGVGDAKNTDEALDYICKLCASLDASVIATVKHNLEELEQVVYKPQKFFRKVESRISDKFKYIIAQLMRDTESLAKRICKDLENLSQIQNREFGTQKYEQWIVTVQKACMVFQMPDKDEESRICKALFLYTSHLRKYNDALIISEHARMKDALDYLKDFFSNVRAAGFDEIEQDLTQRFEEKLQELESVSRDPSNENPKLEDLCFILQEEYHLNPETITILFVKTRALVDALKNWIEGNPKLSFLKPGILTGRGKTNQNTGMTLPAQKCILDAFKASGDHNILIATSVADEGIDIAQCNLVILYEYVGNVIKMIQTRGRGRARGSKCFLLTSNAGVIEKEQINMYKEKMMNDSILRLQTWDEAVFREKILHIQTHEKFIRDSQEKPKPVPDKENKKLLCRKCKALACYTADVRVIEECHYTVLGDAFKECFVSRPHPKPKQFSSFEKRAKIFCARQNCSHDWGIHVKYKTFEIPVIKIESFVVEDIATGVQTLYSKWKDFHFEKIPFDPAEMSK
UniProt O94886: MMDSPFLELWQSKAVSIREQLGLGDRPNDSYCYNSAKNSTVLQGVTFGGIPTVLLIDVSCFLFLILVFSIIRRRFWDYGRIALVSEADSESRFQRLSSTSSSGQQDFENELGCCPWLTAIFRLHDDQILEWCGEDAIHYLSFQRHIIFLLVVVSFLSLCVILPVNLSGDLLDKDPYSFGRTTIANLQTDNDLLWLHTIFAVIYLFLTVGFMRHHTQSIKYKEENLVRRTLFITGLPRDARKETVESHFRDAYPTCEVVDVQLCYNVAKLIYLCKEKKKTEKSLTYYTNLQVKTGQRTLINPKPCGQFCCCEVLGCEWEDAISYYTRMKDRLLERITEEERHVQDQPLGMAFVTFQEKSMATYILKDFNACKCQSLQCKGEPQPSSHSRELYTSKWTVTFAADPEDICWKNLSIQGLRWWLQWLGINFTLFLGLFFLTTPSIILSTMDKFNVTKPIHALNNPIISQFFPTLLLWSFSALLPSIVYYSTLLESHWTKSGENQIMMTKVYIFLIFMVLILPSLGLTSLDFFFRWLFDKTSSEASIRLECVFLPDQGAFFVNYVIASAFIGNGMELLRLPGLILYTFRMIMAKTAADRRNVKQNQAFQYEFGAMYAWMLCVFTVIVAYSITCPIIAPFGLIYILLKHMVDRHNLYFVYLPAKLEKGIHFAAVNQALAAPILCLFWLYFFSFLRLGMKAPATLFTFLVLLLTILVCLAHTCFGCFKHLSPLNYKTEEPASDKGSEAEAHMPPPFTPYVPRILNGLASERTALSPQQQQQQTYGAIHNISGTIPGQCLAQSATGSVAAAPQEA
UniProt O95573: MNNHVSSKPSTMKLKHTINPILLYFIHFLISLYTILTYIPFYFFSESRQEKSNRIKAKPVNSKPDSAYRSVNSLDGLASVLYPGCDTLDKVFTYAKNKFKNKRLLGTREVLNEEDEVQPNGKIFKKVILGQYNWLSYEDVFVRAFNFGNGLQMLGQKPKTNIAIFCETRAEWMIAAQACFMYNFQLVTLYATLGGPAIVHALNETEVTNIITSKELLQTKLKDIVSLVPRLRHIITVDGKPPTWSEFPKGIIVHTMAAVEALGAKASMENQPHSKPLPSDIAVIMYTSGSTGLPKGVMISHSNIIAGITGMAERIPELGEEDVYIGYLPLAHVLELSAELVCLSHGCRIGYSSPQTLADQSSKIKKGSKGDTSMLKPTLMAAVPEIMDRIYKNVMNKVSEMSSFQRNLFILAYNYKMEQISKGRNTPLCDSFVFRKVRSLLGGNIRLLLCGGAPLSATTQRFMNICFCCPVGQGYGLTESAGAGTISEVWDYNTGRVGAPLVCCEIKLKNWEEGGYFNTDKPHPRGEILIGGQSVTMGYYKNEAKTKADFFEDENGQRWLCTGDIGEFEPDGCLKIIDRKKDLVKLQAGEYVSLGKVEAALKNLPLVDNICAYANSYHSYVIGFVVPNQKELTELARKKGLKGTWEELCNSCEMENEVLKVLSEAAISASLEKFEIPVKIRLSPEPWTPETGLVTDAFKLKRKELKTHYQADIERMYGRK
UniProt O95721: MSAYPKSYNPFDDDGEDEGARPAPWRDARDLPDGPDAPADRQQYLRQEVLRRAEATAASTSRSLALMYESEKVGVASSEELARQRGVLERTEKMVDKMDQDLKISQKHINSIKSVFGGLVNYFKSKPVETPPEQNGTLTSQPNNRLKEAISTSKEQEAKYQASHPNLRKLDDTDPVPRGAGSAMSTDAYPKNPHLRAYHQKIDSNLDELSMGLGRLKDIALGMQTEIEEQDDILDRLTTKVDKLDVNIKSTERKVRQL

Compound: Nc1ncnc2c1ncn2[C@@H]1O[C@H](COP(=O)(O)OP(=O)(O)OP(=O)(O)O)[C@@H](O)[C@H]1O [adenosine triphosphate]
Experiment: NP40-soluble protein abundance relative to vehicle (solubility fold change) (ratio); higher = more soluble protein in presence of ATP
Summary of the method: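 Eight concentrations, 0.1 to 10 mM, were tested on Jurkat crude lysate for 10 min at room temperature and then 3 min at 37 °C, in three independent experiments. The lysate was solubilised with 0.8% NP40 and benzonase, ultracentrifuged, and the supernatant TMT-labelled for LC-MS/MS. Each value is the fold change against the detergent-processed vehicle in its own replicate, from vsn-normalised intensities.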

Target	NP40-soluble protein abundance (concentration: 0.1mM)	NP40-soluble protein abundance (concentration: 0.5mM)	NP40-soluble protein abundance (concentration: 1mM)	NP40-soluble protein abundance (concentration: 2mM)	NP40-soluble protein abundance (concentration: 4mM)	NP40-soluble protein abundance (concentration: 6mM)	NP40-soluble protein abundance (concentration: 8mM)	NP40-soluble protein abundance (concentration: 10mM)
AGFG2 (UniProt O95081)	0.973 ± 0.066	1 ± 0.15	–	–	–	–	–	–
RPP14 (UniProt O95059)	0.988 ± 0.11	1.015 ± 0.0026	–	–	–	–	–	–
LYPLA2 (UniProt O95372)	0.9747 ± 0.006	0.935 ± 0.058	–	–	–	–	–	–
NDUFS6 (UniProt O75380)	0.94 ± 0.044	0.933 ± 0.025	–	–	–	–	–	–
UniProt O75525 and related entries	1.04 ± 0.019	1.03 ± 0.016	–	–	–	–	–	–
UniProt O95758-2|O95758-6|O95758 and related entries	1.02 ± 0.058	1.03 ± 0.037	–	–	–	–	–	–
UniProt O94973 and related entries	1.01 ± 0.054	1.07 ± 0.055	–	–	–	–	–	–
MAN1A2 (UniProt O60476)	1.03 ± 0.058	0.997 ± 0.074	–	–	–	–	–	–
ATRN (UniProt O75882)	0.941 ± 0.07	0.914 ± 0.056	0.928 ± 0.039	0.947 ± 0.048	0.975 ± 0.015	0.959 ± 0.095	0.896 ± 0.01	0.899 ± 0.057
UniProt O94913 and related entries	0.9973 ± 0.0079	1.04 ± 0.052	–	–	–	–	–	–
UniProt O60861	1.01 ± 0.041	1.04 ± 0.066	–	–	–	–	–	–
CRTAP (UniProt O75718)	0.998 ± 0.039	1.09 ± 0.026	1.11 ± 0.024	1.14 ± 0.032	1.16 ± 0.024	1.19 ± 0.034	1.19 ± 0.033	1.2 ± 0.052
UniProt O95696 and related entries	0.995 ± 0.092	1.01 ± 0.11	–	–	–	–	–	–
UniProt O60762 and related entries	1.09 ± 0.027	1.18 ± 0.072	–	–	–	–	–	–
UniProt O75400 and related entries	1.04 ± 0.064	1.27 ± 0.099	1.35 ± 0.075	1.44 ± 0.086	1.65 ± 0.097	2.14 ± 0.13	2.39 ± 0.13	2.62 ± 0.2
RNASEH2A (UniProt O75792)	1.01 ± 0.039	1.01 ± 0.037	–	–	–	–	–	–
PRPF6 (UniProt O94906)	0.998 ± 0.078	1.12 ± 0.11	1.31 ± 0.017	1.5 ± 0.12	1.79 ± 0.13	1.97 ± 0.2	2.18 ± 0.15	2.36 ± 0.21
SPAG7 (UniProt O75391)	0.95 ± 0.067	0.946 ± 0.06	0.972 ± 0.053	0.964 ± 0.047	0.964 ± 0.04	0.969 ± 0.046	0.9594 ± 0.0036	0.903 ± 0.058
SGPL1 (UniProt O95470)	1.04 ± 0.086	1.05 ± 0.059	1.05 ± 0.14	1.03 ± 0.1	1.02 ± 0.086	0.965 ± 0.094	1.07 ± 0.079	1.06 ± 0.075
SAP30 (UniProt O75446)	0.868 ± 0.069	0.932 ± 0.19	0.93 ± 0.092	0.952 ± 0.092	0.907 ± 0.073	0.971 ± 0.15	0.96 ± 0.044	0.915 ± 0.13

Target	NP40-soluble protein abundance (concentration: 0.1mM)	NP40-soluble protein abundance (concentration: 0.5mM)	NP40-soluble protein abundance (concentration: 1mM)	NP40-soluble protein abundance (concentration: 2mM)	NP40-soluble protein abundance (concentration: 4mM)	NP40-soluble protein abundance (concentration: 6mM)	NP40-soluble protein abundance (concentration: 8mM)	NP40-soluble protein abundance (concentration: 10mM)
NBN (UniProt O60934)	1.04 ± 0.023	1.05 ± 0.046	–	–	–	–	–	–
UniProt O95271 and related entries	1.02 ± 0.072	1.12 ± 0.019	–	–	–	–	–	–
UniProt O95294 and related entries	0.96 ± 0.046	1.01 ± 0.061	0.95 ± 0.03	0.96 ± 0.069	1.01 ± 0.058	0.994 ± 0.11	0.962 ± 0.13	0.965 ± 0.15
DNAJC13 (UniProt O75165)	1.04 ± 0.044	1.05 ± 0.055	1.15 ± 0.024	1.29 ± 0.095	1.3 ± 0.043	1.35 ± 0.12	1.68 ± 0.12	1.73 ± 0.22
UniProt O95379-3|O95379-4	0.869 ± 0.035	0.89 ± 0.057	0.855 ± 0.036	0.93 ± 0.019	0.885 ± 0.032	0.9504 ± 0.0062	0.932 ± 0.035	0.85 ± 0.1
NPM3 (UniProt O75607)	0.996 ± 0.039	1.005 ± 0.0086	–	–	–	–	–	–
HSPA4L (UniProt O95757)	1 ± 0.038	1.02 ± 0.057	0.964 ± 0.015	0.9785 ± 0.0092	0.951 ± 0.018	0.987 ± 0.018	0.937 ± 0.036	0.949 ± 0.019
BANF1 (UniProt O75531)	1.09 ± 0.12	5.43 ± 2.5	5.83 ± 1.6	5.36 ± 0.56	5.89 ± 1.4	6.26 ± 1.4	5.6 ± 0.81	5.02 ± 1.8
PRKRA (UniProt O75569)	0.971 ± 0.022	0.972 ± 0.052	–	–	–	–	–	–
UniProt O95639 and related entries	1.01 ± 0.038	1.19 ± 0.031	1.3 ± 0.028	1.38 ± 0.046	1.52 ± 0.06	1.64 ± 0.1	1.7 ± 0.039	1.73 ± 0.078
PALM (UniProt O75781)	0.96 ± 0.025	0.928 ± 0.033	–	–	–	–	–	–
DDX58 (UniProt O95786)	1.08 ± 0.076	1.07 ± 0.082	1.06 ± 0.097	1.03 ± 0.063	1 ± 0.05	0.978 ± 0.078	1.03 ± 0.056	1.01 ± 0.055
TOM1 (UniProt O60784)	0.936 ± 0.054	0.897 ± 0.032	–	–	–	–	–	–
TMEM63A (UniProt O94886)	1.06 ± 0.026	0.959 ± 0.044	0.9962 ± 0.0062	1.016 ± 0.004	1.01 ± 0.023	1.0012 ± 0.00078	0.961 ± 0.024	0.979 ± 0.01
AP1G2 (UniProt O75843)	1.07 ± 0.058	1.01 ± 0.061	–	–	–	–	–	–
ACSL3 (UniProt O95573)	1.04 ± 0.037	1.07 ± 0.036	1.02 ± 0.05	1.05 ± 0.028	1.03 ± 0.036	1 ± 0.11	1.03 ± 0.041	1.01 ± 0.031
DNAJA2 (UniProt O60884)	0.998 ± 0.043	1.01 ± 0.068	–	–	–	–	–	–
SNAP29 (UniProt O95721)	0.956 ± 0.069	0.94 ± 0.075	0.967 ± 0.086	0.943 ± 0.043	0.939 ± 0.055	0.967 ± 0.04	0.939 ± 0.036	0.877 ± 0.046
CPNE3 (UniProt O75131)	1.01 ± 0.06	1.01 ± 0.033	0.969 ± 0.067	0.983 ± 0.052	0.954 ± 0.054	0.903 ± 0.1	0.951 ± 0.024	0.96 ± 0.024
ZBTB11 (UniProt O95625)	1.03 ± 0.045	1.04 ± 0.035	1.03 ± 0.057	1.004 ± 0.0071	1.03 ± 0.053	0.949 ± 0.021	0.97 ± 0.015	0.979 ± 0.04

Given as labelled records: part of the list above.
SPAG7 (UniProt O75391)
  NP40-soluble protein abundance (concentration: 0.1mM): 0.95 ± 0.067; NP40-soluble protein abundance (concentration: 0.5mM): 0.946 ± 0.06; NP40-soluble protein abundance (concentration: 1mM): 0.972 ± 0.053; NP40-soluble protein abundance (concentration: 2mM): 0.964 ± 0.047; NP40-soluble protein abundance (concentration: 4mM): 0.964 ± 0.04; NP40-soluble protein abundance (concentration: 6mM): 0.969 ± 0.046; NP40-soluble protein abundance (concentration: 8mM): 0.9594 ± 0.0036; NP40-soluble protein abundance (concentration: 10mM): 0.903 ± 0.058
SGPL1 (UniProt O95470)
  NP40-soluble protein abundance (concentration: 0.1mM): 1.04 ± 0.086; NP40-soluble protein abundance (concentration: 0.5mM): 1.05 ± 0.059; NP40-soluble protein abundance (concentration: 1mM): 1.05 ± 0.14; NP40-soluble protein abundance (concentration: 2mM): 1.03 ± 0.1; NP40-soluble protein abundance (concentration: 4mM): 1.02 ± 0.086; NP40-soluble protein abundance (concentration: 6mM): 0.965 ± 0.094; NP40-soluble protein abundance (concentration: 8mM): 1.07 ± 0.079; NP40-soluble protein abundance (concentration: 10mM): 1.06 ± 0.075
SAP30 (UniProt O75446)
  NP40-soluble protein abundance (concentration: 0.1mM): 0.868 ± 0.069; NP40-soluble protein abundance (concentration: 0.5mM): 0.932 ± 0.19; NP40-soluble protein abundance (concentration: 1mM): 0.93 ± 0.092; NP40-soluble protein abundance (concentration: 2mM): 0.952 ± 0.092; NP40-soluble protein abundance (concentration: 4mM): 0.907 ± 0.073; NP40-soluble protein abundance (concentration: 6mM): 0.971 ± 0.15; NP40-soluble protein abundance (concentration: 8mM): 0.96 ± 0.044; NP40-soluble protein abundance (concentration: 10mM): 0.915 ± 0.13
